Hit rate of the full screen: of about 400,000 compounds, about 3,700 (0.93%) were called active. The inconclusive results got no clear call from the source; some entries with a clear call stand among them for comparison. Calls follow the shape of the dose curve; as a rule, active = well fitted inhibition curve with a large enough effect; inconclusive = small, poorly fitted or top-dose-only effect, or another doubt; inactive = no such curve, though single readings can be large or run the other way. Potencies beside an inconclusive call are fits to weak or partial responses and may not hold up.
Target: Vitamin D3 receptor (Homo sapiens) (UniProt P11473)
Assay: Inhibitors of the vitamin D receptor (VDR): qHTS
Details: VDR-SRC2-3 peptide fluorescence polarization, 2 h; max response, negative = inhibition: hits give low values
Procedure, shortened: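 Signal is fluorescence polarization, reporting how far test compounds block the interaction of VDR with the SRC2-3 coregulator peptide after a 2 h room-temperature incubation.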
% is scaled to controls: 0 for no effect and ±100 for the full control effect; potency is read from the fitted curve at half-maximal effect.

By UniProt entry, the sequences of proteins in these tests, tags left out.
UniProt P11473, whole entry, looked up: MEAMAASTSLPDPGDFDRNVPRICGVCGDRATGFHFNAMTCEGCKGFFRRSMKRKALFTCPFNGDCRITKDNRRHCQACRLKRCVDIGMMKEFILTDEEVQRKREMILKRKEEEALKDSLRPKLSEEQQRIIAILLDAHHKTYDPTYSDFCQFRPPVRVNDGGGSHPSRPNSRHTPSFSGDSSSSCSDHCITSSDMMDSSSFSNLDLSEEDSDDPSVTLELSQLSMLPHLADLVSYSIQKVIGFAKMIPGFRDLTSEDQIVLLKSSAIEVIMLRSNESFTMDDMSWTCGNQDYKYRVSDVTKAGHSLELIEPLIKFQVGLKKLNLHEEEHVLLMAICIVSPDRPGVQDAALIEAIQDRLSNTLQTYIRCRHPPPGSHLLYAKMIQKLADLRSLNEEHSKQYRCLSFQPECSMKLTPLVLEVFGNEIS

Potency, active:
C=CCOc1ccccc1C(=O)/C=C1/C(=O)Nc2ccccc21 22.4 µM, CN(C)c1ccc(-c2cncnc2NCCN2CCOCC2)cc1 39.8 µM, O=C(O)COc1cccc(/C=C2/SC(=S)N(Cc3ccccc3)C2=O)c1 79.4 µM, Cc1ccc(C(=O)Oc2oc(-c3ccco3)nc2C=Nc2ccc(Cl)cc2)cc1 50.1 µM, O=S1OC(c2ccccc2)c2cc(Cl)ccc21 (stereo unspecified) 22.4 µM, Cc1ccc(NC(=O)c2nc(S(=O)(=O)Cc3ccccc3)ncc2Cl)cc1 25.1 µM, O=C(Nc1cc(S(=O)(=O)N2CCOCC2)ccc1N1CCCC1)c1ccc2c(c1)S(=O)(=O)c1ccccc1C2=O 44.7 µM, CC1(C)CC(=O)C(C(C2=C(O)CC(C)(C)CC2=O)c2cccs2)C(=O)C1 (stereo unspecified) 50.1 µM, Cc1ccc(C2C(C#N)=C(N)Oc3n[nH]c(-c4ccccc4)c32)o1 (stereo unspecified) 25.1 µM, O=C(NC(NNc1ccc([N+](=O)[O-])cc1)(C(F)(F)F)C(F)(F)F)c1ccc(Cl)cc1 79.4 µM, CCC/C=C1/CCCOC(C(=O)NCc2ccc(C)o2)(C(F)(F)F)C1 (stereo unspecified) 50.1 µM, N#CC1=C2SCN(C3CCCCC3)CN2C(=O)CC1c1ccc(F)cc1 (stereo unspecified) 17.8 µM, COC1=C(C)C(O)=C(C(=O)/C=C/c2ccccc2)C(=O)C1(C)C 20 µM

Potency, inconclusive:
CS(=O)(=O)c1ccc(C(=O)OCc2nnc(-c3ccccc3)o2)cc1[N+](=O)[O-] 7.94 µM [inhibitor, partial curve], CCNc1ccccc(C(=O)/C=C/c2ccc3c(c2)OCO3)c1=O 63.1 µM [inhibitor, partial curve, poor fit], Cn1cccc1C(=O)N1CCC[C@@]2(CCN(Cc3cc(C(F)(F)F)cc(C(F)(F)F)c3)C2)C1 79.4 µM [inhibitor, single point], CCCN1C(=O)/C(=c2\sc3nc(=O)c(Cc4ccc(C)cc4)nn3c2=O)c2ccccc21 39.8 µM [inhibitor, partial curve, poor fit], CC1CCN(C(=O)CSc2nncn2-c2ccccn2)CC1 44.7 µM [inhibitor, partial curve], Clc1ccccc1C1Nc2cccc3cccc(c23)N1 89.1 µM [inhibitor, single point], Cc1ccc(/C=C2\C(=O)ON=C2c2ccccc2)o1 70.8 µM [inhibitor, single point], O=C(NNC(=S)Nc1ccc(Cl)cc1Cl)c1ccncc1 89.1 µM [inhibitor, partial curve, poor fit], CCOC(=O)c1c(NC(=O)c2ccco2)n(C2CCCCC2)c2nc3ccccc3nc12 44.7 µM [inhibitor, partial curve, poor fit], CCC(CC)C(=O)N1CCCC(c2nc(-c3cccs3)no2)C1 (stereo unspecified) 70.8 µM [inhibitor, single point], N#C/C(=C\c1ccccc1)C(=O)NNS(=O)(=O)c1cccc([N+](=O)[O-])c1 56.2 µM [inhibitor, partial curve, poor fit], CCN(CC)C(=O)c1sc(NC(=O)c2ccncc2)c(C(=O)OC)c1C 0.631 µM [inhibitor, full curve, poor fit], Cc1cccc(C(=O)OC(C)C(=O)NC(=O)NC2CCCCC2)c1O (stereo unspecified) 89.1 µM [inhibitor, single point], CCOC(=O)c1cccc(NC(=O)c2nn(-c3ccc(OC)cc3)c(=O)c3c2c2ccccc2n3C)c1 100 µM [inhibitor, single point], CC(Oc1ccccc1Cl)C(=O)Nc1ccc(S(=O)(=O)N2CCN(C)CC2)cc1 (stereo unspecified) 56.2 µM [inhibitor, partial curve, poor fit], Cn1cnnc1SCC(=O)NNC(=O)c1ccc(Cl)cc1 100 µM [inhibitor, partial curve, poor fit], Cc1ccc(S(=O)(=O)c2nc(C(C)(C)C)oc2N2CCOCC2)cc1 56.2 µM [inhibitor, partial curve, poor fit], CCC(=O)Nc1cccc(C(=O)/C=C/c2cc(Br)ccc2OC)c1 35.5 µM [inhibitor, partial curve, poor fit], Cc1ccccc1S(=O)(=O)Cc1ccc(C(=O)NCc2ccco2)o1 15.8 µM [inhibitor, partial curve, poor fit], Cn1c(SCC(=O)NCc2cccs2)nnc1-c1ccc(O)cc1 70.8 µM [inhibitor, single point], Cc1ccc(C)c2sc(NC(=O)CN3C(=O)CCC3=O)nc12 10 µM [inhibitor, full curve, poor fit], CCOC(=O)C#CC(CCc1ccccc1)OS(N)(=O)=O (stereo unspecified) 50.1 µM [inhibitor, partial curve, poor fit], CC(C)(O)c1ccccc1CC[C@@H](SCC1(CC(=O)O)CC1)c1cccc(/C=C/c2ccc3ccc(Cl)cc3n2)c1 14.1 µM [inhibitor, partial curve, poor fit], O=C(O)C(=O)/C(=C\c1ccc(Cl)cc1)c1ccc2ccccc2n1 89.1 µM [inhibitor, single point], CN(C)c1ccc(O)c2c1C[C@@H]1C[C@H]3C(N(C)C)C(=O)C(C(N)=O)=C(O)[C@@]3(O)C(=O)C1=C2O (stereo partly specified) 89.1 µM [inhibitor, partial curve, poor fit], COc1ccc(C)cc1NC(=O)Nc1ccccc1SC 79.4 µM [inhibitor, single point], COc1ccc(/C=C2/CCC(CN3CCOCC3)C2=O)cc1 (stereo unspecified) 7.94 µM [inhibitor, full curve, poor fit], Nn1c(=S)[nH]c2sc3c(c2c1=O)CCCC3 79.4 µM [inhibitor, partial curve, poor fit], O=C(O)c1ccccc1NC(=O)N1c2ccccc2Sc2ccccc21 44.7 µM [inhibitor, partial curve], Cc1cc(NC(=O)CSc2ccc(Cl)cc2)no1 89.1 µM [inhibitor, partial curve, poor fit], CC[n+]1c(/C=C2/C=C(C)CC(C)(C)C2)sc2ccc(OC)cc21 39.8 µM [inhibitor, single point], N#Cc1c(-c2ccccc2)cc(-c2cccs2)nc1SCC(=O)O 89.1 µM [inhibitor, single point], COc1cccc(C(=O)Nc2ccc(F)c(F)c2F)c1 70.8 µM [inhibitor, partial curve], CCc1ccccc1NC(=O)C1=CN2CCS(=O)(=O)N=C2C=C1 17.8 µM [inhibitor, partial curve], COc1ccccc1C(=O)Nc1ccc2c(c1)nc1n2CCN(C2CCCCC2)C1 25.1 µM [inhibitor, partial curve, poor fit], N#Cc1sc2nc(-c3ccccc3)cc(-c3ccco3)c2c1N 31.6 µM [inhibitor, partial curve, poor fit], Cc1ccccc1OCC(=O)Nc1ccc(Cc2ccncc2)cc1 35.5 µM [inhibitor, partial curve, poor fit], CN1CCc2c(sc3nc(SCC(=O)NCc4ccco4)n(-c4ccccc4)c(=O)c23)C1 7.94 µM [inhibitor, partial curve, poor fit]

Max response, negative = inhibition, inactive:
CC(C)c1ccc(NC(=O)CSc2n[nH]c(=O)n2-c2cccnc2)cc1 19.1%, COc1ccc(C(=O)NCCS(=O)(=O)NCc2ccc3c(c2)OCO3)cc1 0%, CCCOc1ccc(CSc2nnc(CCC)n2N)cc1 -0.738%, O=C(Cc1cccc(NC(=O)C2CCCN(C(=O)C3CCCCC3)C2)c1)Nc1cccc(C(=O)N2CCCCC2)c1 (stereo unspecified) -9.79%, Cc1ccc(C)c(C(C)NC(=S)NCc2ccc(F)cc2)c1 (stereo unspecified) 2.41%, CCn1cc(C(=O)N2CCN(c3ccccc3OC)CC2)c(=O)c2cc(S(=O)(=O)N3CCC(C)CC3)ccc21 -11.3%, Cc1ccc(NS(=O)(=O)c2ccc3[nH]c4c(c3c2)CCCCC4)cc1 24.9%, Cc1ccc(-c2csc(NC(=O)c3cccc([N+](=O)[O-])c3)n2)cc1 -3.33%, CCOc1c(OC(C)=O)ccc(/C=C/c2ccc3cccc(OC(C)=O)c3n2)c1[N+](=O)[O-] 15.3%, CCOC(=O)C1CCN(S(=O)(=O)c2ccc3c(c2)CC(=O)N3C)CC1 -12%, CCn1nc(C)cc1C(=O)N1CCCC(Nc2ccc(C(C)C)cc2)C1 (stereo unspecified) -8.01%, CC(c1ccccc1)N(CCC(c1ccccc1)C1CCOC(C)(C)C1)C(=O)c1ccco1 (stereo unspecified) 7.04%, COc1cccc2c1C(=O)CC(c1ccccc1)O2 (stereo unspecified) -9.53%, Cn1c(COc2nnc(-c3ccc(Cl)cc3)c3ccccc23)nc2ccccc21 -2.31%, CCC(c1nnc(SCCNCCO)n1CCN1CCOCC1)N(C)C (stereo unspecified) 19.2%

Reference: PubChem BioAssay AID504847 (National Center for Advancing Translational Sciences (NCATS), 2011)
